The source gives many values for each of these; only a part stands here.
Tested on: mRNA expression in peripheral blood of individuals with DMD
Assay: Whole-blood gene expression microarray: DMD administered deflazacort vs DMD administered prednisone
Type: in vivo, human
Details: vs. prednisone
Description: Fifteen ml of blood was collected from each individual into 6 PAXgene® Vacutainer® tubes (PreAnalytiX, Germany) by antecubital fossa venipuncture. PAXgene® tubes contain a proprietary reagent that immediately stabilizes RNA, thus reducing RNA degradation and minimizing gene expression changes following phlebotomy. The tubes were then inverted 20 times, then remained undisturbed for 2 h at room temperature (about 19° C. to about 22° C.), and then stored at -70° C. until processed. Total RNA was isolated using the Paxgene® blood RNA kit (PreAnalytiX, Germany) according to the manufacturers instructions. The RNA isolated is from all cells in whole blood. Typical yields of total RNA isolated from about 7.5 ml of human whole blood were between 10 μg RNA and 40 μg RNA. RNA quality and purity was analyzed by spectrophotometry using the Nanodrop ND-1000, and RNA integrity was analyzed using the Agilent 2100 Bioanalyzer. […] Sample labeling, hybridization to chips, and image scanning were performed using standard Affymetrix protocols. For each whole blood sample from control individuals and individuals with DMD, total RNA was labeled using the One-Cycle Target Labeling protocol and hybridized to the arrays. […] Double-stranded cDNA synthesis, biotin-labeled cRNA synthesis, and cRNA fragmentation were performed according to the Affymetrix GeneChip Eukaryotic Expression Analysis protocol. The labeled, fragmented cRNA (15 μg) was hybridized at 45° C. overnight. After hybridization, the array was washed and stained. The arrays were scanned with an argon-ion laser at λ=570 nm, with a resolution of 3 μm/pixel (Affymetrix, Inc.). After scanning the array, the raw probe level values for each probe were saved in Affymetrix.cel files. […] Statistical analyses, including t-test analyses, unsupervised hierarchical clustering, and principal component analyses were conducted using Genespring 7.2 software ([…]® 7, Silicon Genetics, Redwood City Calif.). […] Corrections for multiple comparisons used a Benjamini-Hochberg False Discovery Rate (FDR) of 0.05, disclosed in Tang et al., J Cereb Blood Flow Metab 26 (2006) 1089, which is expressly incorporated by reference herein in its entirety. […] Sample processing and array hybridization, probe-level data analysis, and statistical analysis were identical to Example 1.

CC(=O)OCC(=O)[C@@]12N=C(C)O[C@@H]1C[C@H]1[C@@H]3CCC4=CC(=O)C=C[C@]4(C)[C@H]3[C@@H](O)C[C@@]12C [deflazacort]
p-value (NDE1, BF973292, nucleic acid 2138): 0.024
p-value (NDE1, NM_017668, nucleic acid 2139): 0.0358
p-value (NFIC, AW134798, nucleic acid 2140): 0.0141
p-value (NKTR, AI880383, nucleic acid 2141): 0.0222
p-value (NM_173704, nucleic acid 2284): 0.0147
p-value (NOTCH2, AA291203, nucleic acid 2142): 0.00739
p-value (NOTCH2, AF308601, nucleic acid 1046): 0.0265
p-value (NOTCH2NL, AW516297, nucleic acid 2143): 0.0362
p-value (NSF, AK025172, nucleic acid 2144): 0.0411
p-value (NUDT4, NUDT4P1, AF191653, nucleic acid 1738): 0.0352
p-value (OLIG1, AL355743, nucleic acid 1399): 0.00583
p-value (OSBP2, BE501253, nucleic acid 2319): 0.0334
p-value (OSTF1, NM_012383, nucleic acid 2145): 0.0203
p-value (PACSIN2, NM_007229, nucleic acid 2146): 0.0409
p-value (PAPD4, AW104325, nucleic acid 2147): 0.00878
p-value (PARP9, AI738416, nucleic acid 2148): 0.0394
p-value (PARVG, AL355092, nucleic acid 2149): 0.0293
p-value (PB1, H79538, nucleic acid 2150): 0.0371
p-value (PBX2, BE397715, nucleic acid 2151): 0.0221
p-value (PCBP2, AW025150, nucleic acid 2152): 0.0394
p-value (PDLIM5, NM_006457, nucleic acid 2153): 0.0238
p-value (PECAM1, AA702701, nucleic acid 2155): 0.00909
p-value (PECAM1, M37780, nucleic acid 2154): 0.00421
p-value (PF4V1, NM_002620, nucleic acid 2156): 0.0164
p-value (PFKFB3, NM_004566, nucleic acid 2157): 0.0338
p-value (PHACTR2, AA551142, nucleic acid 2158): 0.039
p-value (PHACTR2, NM_014721, nucleic acid 2159): 0.0451
p-value (PHCA, R12678, nucleic acid 2160): 0.0221
p-value (PHF21A, BC015714, nucleic acid 2161): 0.0231
p-value (PHGDHL1, AF339764, nucleic acid 2162): 0.0444
p-value (PICALM, AL135735, nucleic acid 2164): 0.0165
p-value (PICALM, AV722190, nucleic acid 762): 0.0363
p-value (PLEK, NM_002664, nucleic acid 2165): 0.000252
p-value (PLEKHA2, BF347859, nucleic acid 886): 0.0183
p-value (PLEKHM1, AB002354, nucleic acid 2166): 0.0134
p-value (PLSCR1, AI825926, nucleic acid 2167): 0.0487
p-value (PLXNB2, BC004542, nucleic acid 2168): 0.0177
p-value (PPGB, NM_000308, nucleic acid 2170): 0.0193
p-value (PPIG, AW970944, nucleic acid 2171): 0.011
p-value (PPM1F, BC013798, nucleic acid 2172): 0.0208
p-value (PPP3CA, AA532718, nucleic acid 2173): 0.0165
p-value (PRKACA, NM_002730, nucleic acid 2174): 0.00184
p-value (PRKAR1A, AI682905, nucleic acid 2175): 0.0262
p-value (PRKAR2B, NM_002736, nucleic acid 1688): 0.0441
p-value (PRKCD, NM_006254, nucleic acid 2176): 0.0077
p-value (PROK2, AF182069, nucleic acid 2177): 0.0338
p-value (PSENEN, NM_018468, nucleic acid 2178): 0.0201
p-value (PTGS1, NM_000962, nucleic acid 329 (first entry)): 0.0419
p-value (PTGS1, NM_000962, nucleic acid 329 (second entry)): 0.0226
p-value (PTGS1, S36219, nucleic acid 1667): 0.0474
p-value (PTGS2, AY151286, nucleic acid 2179): 0.0187
p-value (PTPN12, AL079909, nucleic acid 2180): 0.00163
p-value (PTPRE, AA775177, nucleic acid 2181): 0.0161
p-value (RAB2B, AA531016, nucleic acid 2320): 0.0428
p-value (RAB8A, BC002977, nucleic acid 2185): 0.00561
p-value (RAB11FIP1, NM_025151, nucleic acid 2182): 0.0397
p-value (RAB11FIP4, BG248313, nucleic acid 465): 0.047
p-value (RAB18, AU145607, nucleic acid 2183): 0.0414
p-value (RAB31, NM_006868, nucleic acid 2184): 0.0378
p-value (RAC1, AJ012502, nucleic acid 551): 0.0328
p-value (RAI17, AF070622, nucleic acid 1313): 0.0318
p-value (RAP1A, AW793677, nucleic acid 2186): 0.0194
p-value (RAP80, AF113675, nucleic acid 2187): 0.00717
p-value (RARA, AJ417079, nucleic acid 2188): 0.00262
p-value (RARA, U41742, nucleic acid 2321): 0.0198
p-value (RASA1, AK021812, nucleic acid 2189): 0.0372
p-value (RBBP5, NM_005057, nucleic acid 2190): 0.0383
p-value (REL, NM_002908, nucleic acid 2191): 0.0166
p-value (RERE, H71242, nucleic acid 2192): 0.0354
p-value (RFWD2, BF725688, nucleic acid 2193): 0.0334
p-value (RFX2, AK024288, nucleic acid 2194): 0.0472
p-value (RG9MTD3, AI214944, nucleic acid 2195): 0.0449
p-value (RHOQ, BC033251, nucleic acid 2196): 0.0402
p-value (RIN3, AA625133, nucleic acid 2197): 0.0322
p-value (RIT1, AL037450, nucleic acid 1675): 0.0214
p-value (RNF24, BC000213, nucleic acid 2198): 0.0415
p-value (ROCK1, AL050032, nucleic acid 2199): 0.0356
p-value (RSU1, AW515913, nucleic acid 2200): 0.0152
p-value (RUFY1, NM_025158, nucleic acid 2201): 0.0258
p-value (RUFY2, NM_017987, nucleic acid 2202): 0.00853
p-value (SEC14L1, NM_003003, nucleic acid 2203): 0.0303
p-value (SEC23B, BC005032, nucleic acid 2204): 0.0301
p-value (SECTM1, BF939675, nucleic acid 2205): 0.0499
p-value (SERPINA1, AF119873, nucleic acid 2207): 0.0459
p-value (SERPINA1, NM_000295, nucleic acid 2206): 0.022
p-value (SF3A2, L21990, nucleic acid 2208): 0.0469
p-value (SGK, NM_005627, nucleic acid 2209): 0.028
p-value (SH3BGRL2, AL035700, nucleic acid 1736): 0.0258
p-value (SIGLEC7, NM_016543, nucleic acid 2210): 0.0193
p-value (SIRPB1, NM_006065, nucleic acid 2212): 0.0432
p-value (SLC7A7, NM_003982, nucleic acid 2214): 0.0242
p-value (SLC25A36, AL136803, nucleic acid 56): 0.0384
p-value (SLC33A1, BC029450, nucleic acid 2213): 0.0407

— patent US20110217715A1, “GENE EXPRESSION IN DUCHENNE MUSCULAR DYSTROPHY” (CHILDREN'S HOSPITAL MEDICAL CENTER, priority 2008, published 2011)
